# Results: paper PMC10344873 (2023)
# Chains of the proteins cited; added tags and fusions are not shown.
# UniProt Q64261: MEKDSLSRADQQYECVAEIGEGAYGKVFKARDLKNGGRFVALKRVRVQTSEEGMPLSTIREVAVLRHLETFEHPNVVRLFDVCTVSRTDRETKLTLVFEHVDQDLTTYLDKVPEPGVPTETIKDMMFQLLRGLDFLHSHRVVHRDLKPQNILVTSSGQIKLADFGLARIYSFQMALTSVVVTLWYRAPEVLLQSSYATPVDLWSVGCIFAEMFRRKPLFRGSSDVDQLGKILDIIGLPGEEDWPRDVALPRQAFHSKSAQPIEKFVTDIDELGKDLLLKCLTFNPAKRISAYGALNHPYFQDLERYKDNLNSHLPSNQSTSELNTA
# No constants are given. Whether binding was seen depends on the method and setting. In cells and extracts the contact can be indirect. Some entries that bind do so weakly or less than the wild type. Where a sequence is shown, tags or fusion partners need not be part of it.
# B1: wild type p16-NLuc (mouse p16 tagged with NanoLuc luciferase) (protein, UniProt P51480 1-168)
# chain: MESAADRLARAAAQGRVHDVRALLEAGVSPNAPNSFGRTPIQVMMMGNVHVAALLLNYGADSNCEDPTTFSRPVHDAAREGFLDTLVVLHGSGARLDVRDAWGRLPLDLAQERGHQDIVRYLRSAGCSLCSAGWSLCTAGNVAQTDGHSFSSSTPRALELRGQSQEQS
# Target: 3×Flag-tagged wild type CDK6 (mouse (by the printed Gene ID 12571; not stated in words for CDK6)) (UniProt Q64261)
# Assay: co-IP; LUMIER assay: p16-NLuc and Flag-tagged CDK6 co-expressed in HEK293 cells; lysate (150 mM NaCl, 10 mM sodium phosphate pH 7.2, 0.05% Triton-X100) immunoprecipitated with anti-Flag antibody and protein G-Sepharose, 3 h at 4 °C; NLuc bioluminescence read on-bead, normalised on input, relative to wild type; n = 6
binder,measurement,value
B1,binding,binds
